From PMC4451243
No constants are given. Whether binding was seen depends on the method and setting. Binding seen in cells or lysates may run through a third protein. Some results given as binding are weak or reduced against the parent protein; the word gives no strength.

Chains of the proteins cited; added tags and fusions are not shown.
UniProt Q13547: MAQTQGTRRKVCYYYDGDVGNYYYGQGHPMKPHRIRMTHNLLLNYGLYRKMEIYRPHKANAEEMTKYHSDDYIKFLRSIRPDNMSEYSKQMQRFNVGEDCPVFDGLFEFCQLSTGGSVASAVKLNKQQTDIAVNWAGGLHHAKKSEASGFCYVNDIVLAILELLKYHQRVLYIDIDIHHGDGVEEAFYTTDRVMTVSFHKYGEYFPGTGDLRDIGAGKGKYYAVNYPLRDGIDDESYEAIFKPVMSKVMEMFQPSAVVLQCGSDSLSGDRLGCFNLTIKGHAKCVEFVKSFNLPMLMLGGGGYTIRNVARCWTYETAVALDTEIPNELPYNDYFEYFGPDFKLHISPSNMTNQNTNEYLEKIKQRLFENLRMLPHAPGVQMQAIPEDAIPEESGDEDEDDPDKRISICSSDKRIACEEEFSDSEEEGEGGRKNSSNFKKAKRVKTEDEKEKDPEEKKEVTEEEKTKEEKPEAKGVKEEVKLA
UniProt P28370: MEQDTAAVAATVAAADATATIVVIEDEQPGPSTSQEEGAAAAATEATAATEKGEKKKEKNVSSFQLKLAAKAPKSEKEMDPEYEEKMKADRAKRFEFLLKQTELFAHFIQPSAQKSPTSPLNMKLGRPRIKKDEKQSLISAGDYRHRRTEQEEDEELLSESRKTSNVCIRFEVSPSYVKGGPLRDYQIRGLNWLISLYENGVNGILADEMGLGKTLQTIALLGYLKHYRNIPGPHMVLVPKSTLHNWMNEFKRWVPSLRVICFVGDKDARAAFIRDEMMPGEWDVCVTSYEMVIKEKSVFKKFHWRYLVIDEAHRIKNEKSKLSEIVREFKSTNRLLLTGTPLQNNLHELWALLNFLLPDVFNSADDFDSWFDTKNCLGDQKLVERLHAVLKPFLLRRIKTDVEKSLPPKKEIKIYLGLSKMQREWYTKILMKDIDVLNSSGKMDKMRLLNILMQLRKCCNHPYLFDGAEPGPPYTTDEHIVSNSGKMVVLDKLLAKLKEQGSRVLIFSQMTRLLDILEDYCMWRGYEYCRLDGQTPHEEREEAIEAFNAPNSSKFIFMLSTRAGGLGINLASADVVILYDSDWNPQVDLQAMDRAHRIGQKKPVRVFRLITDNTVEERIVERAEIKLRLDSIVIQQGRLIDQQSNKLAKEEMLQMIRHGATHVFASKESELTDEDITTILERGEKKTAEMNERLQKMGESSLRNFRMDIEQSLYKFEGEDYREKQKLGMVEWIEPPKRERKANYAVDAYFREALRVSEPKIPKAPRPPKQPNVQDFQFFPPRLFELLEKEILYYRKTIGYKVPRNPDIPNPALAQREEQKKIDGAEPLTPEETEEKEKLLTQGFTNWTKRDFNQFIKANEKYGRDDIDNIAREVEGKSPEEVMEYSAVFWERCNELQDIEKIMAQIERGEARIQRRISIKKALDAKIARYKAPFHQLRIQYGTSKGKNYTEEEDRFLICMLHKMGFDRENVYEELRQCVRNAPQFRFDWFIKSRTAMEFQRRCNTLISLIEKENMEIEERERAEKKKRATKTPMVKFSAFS
UniProt Q03468: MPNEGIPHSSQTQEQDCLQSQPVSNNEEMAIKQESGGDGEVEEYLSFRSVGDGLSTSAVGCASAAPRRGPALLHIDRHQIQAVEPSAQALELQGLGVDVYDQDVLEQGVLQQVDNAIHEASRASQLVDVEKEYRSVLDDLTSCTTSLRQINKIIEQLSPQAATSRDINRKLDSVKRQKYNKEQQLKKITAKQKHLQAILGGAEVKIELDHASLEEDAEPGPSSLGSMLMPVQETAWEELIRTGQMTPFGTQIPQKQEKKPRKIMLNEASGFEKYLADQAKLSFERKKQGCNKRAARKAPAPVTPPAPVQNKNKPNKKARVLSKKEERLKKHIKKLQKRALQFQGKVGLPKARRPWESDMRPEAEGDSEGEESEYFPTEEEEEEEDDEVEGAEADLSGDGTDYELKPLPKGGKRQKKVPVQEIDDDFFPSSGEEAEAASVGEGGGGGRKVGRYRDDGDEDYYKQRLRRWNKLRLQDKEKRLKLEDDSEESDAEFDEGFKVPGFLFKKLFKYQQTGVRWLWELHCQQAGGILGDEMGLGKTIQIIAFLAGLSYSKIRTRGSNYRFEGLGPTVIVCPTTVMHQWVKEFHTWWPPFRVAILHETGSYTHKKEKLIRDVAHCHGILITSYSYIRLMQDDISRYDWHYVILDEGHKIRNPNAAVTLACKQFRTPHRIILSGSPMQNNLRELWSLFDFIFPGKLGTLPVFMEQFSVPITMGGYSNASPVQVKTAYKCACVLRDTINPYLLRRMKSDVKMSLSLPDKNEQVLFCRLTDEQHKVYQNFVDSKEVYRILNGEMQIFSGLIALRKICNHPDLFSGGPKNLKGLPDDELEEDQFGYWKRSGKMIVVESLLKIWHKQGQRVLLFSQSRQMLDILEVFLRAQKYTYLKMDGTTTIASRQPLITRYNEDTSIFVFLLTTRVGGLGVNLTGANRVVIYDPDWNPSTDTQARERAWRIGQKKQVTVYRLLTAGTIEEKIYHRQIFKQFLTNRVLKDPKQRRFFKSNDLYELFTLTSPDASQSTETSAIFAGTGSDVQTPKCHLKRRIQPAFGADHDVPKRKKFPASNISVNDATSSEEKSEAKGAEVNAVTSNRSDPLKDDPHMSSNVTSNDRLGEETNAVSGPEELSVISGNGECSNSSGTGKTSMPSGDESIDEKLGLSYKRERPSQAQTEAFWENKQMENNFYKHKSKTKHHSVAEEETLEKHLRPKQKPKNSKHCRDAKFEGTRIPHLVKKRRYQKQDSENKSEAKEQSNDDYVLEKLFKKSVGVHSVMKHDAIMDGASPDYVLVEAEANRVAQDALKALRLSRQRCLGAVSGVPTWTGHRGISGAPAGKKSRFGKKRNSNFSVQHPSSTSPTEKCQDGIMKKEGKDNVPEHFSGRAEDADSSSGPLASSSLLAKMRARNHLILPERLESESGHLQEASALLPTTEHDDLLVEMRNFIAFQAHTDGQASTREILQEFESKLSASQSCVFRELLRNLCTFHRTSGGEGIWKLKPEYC

Tests used:
[1] = target: Myc-tagged HDAC1 (human) (UniProt Q13547); assay: co-IP; lysates (RIPA buffer) of CSIAN cells co-transfected with Flag-tagged CSB and a Myc-tagged protein, 24 hr post transfection; anti-c-myc agarose overnight; Western blot with anti-Flag
[2] = target: Myc-tagged SMARCA1 (human) (UniProt P28370); assay: as above

- binding [1]: binds
- binding [2]: binds
Substance: Flag-tagged CSB (from UniProt Q03468 1-1493)
